Data source: PubChem BioAssay AID504808 (Drosophila RNAi Screening Center, 2011)
Test: 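Chromatin factors that keep E2F targets switched off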 (primary screen). System: Drosophila S2 cells. Reagents: long dsRNA against Drosophila genes. Measurement: 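Firefly luciferase driven by E2F sites, normalised to Renilla luciferase on the same minimal promoter, measured by plate reader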. Direction: E2F firefly: higher = more E2F reporter activity; Renilla normaliser: higher = more normaliser reporter signal. Active means: 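a knock-down counted as active when the firefly/Renilla E2F signal rose above 50%, a threshold chosen arbitrarily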.
In all, the deposit lists about 21,000 reagents; shown is a random part of those that have a named target and a result. In the full data, 18 (0.084%) got an active call. 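Raw counts without plate normalisation, one of two replicates; the ratio scores behind the calls were not deposited.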 A number with no mark means an inactive call. Reagent sequences are not shown. Not given: the amount of reagent, the time to read-out.

gene	dsRNA	E2F firefly, rep 1	Renilla normaliser, rep 1
Grl43a	DRSC06383	1.45e5	4967
drl	DRSC03523	73775	3569
Flo2	DRSC19062	79130	2753
Flo2	DRSC20244	2.27e5	7330
pon	DRSC18823	49246	3671
CG12395	DRSC19453	1.52e5	6939
CG6006	DRSC13137	86000	2607
CG6006	DRSC15946	76923	4205
Gel	DRSC12350	70318	3756
Pi3K21B	DRSC00771	88342	3952
Syx8	DRSC10402	1.64e5	8381
CG1137	DRSC12529	1.55e5	6442
Obp50d	DRSC05483	1.38e5	4998
CG6805	DRSC07011	71778	3131
mfrn	DRSC15687	1.20e5	6027
rec	DRSC14998	1.17e5	5823
rec	DRSC15656	1.38e5	5904
Naa20A	DRSC19579	1.78e5	6159
CG5062	DRSC18385	87766	5031
CG2616	DRSC15440	1.41e5	6392
CG1578	DRSC19729	8118	756
CG1632	DRSC17558	79944	3403
CG1632	DRSC18110	1.09e5	5612
Tsf1	DRSC20296	2.42e5	7310
CG13962	DRSC02304	84822	3958
CG31688	DRSC02682	86625	3534
ksr	DRSC12379	1.53e5	5799
CG7702	DRSC16293	65365	2687
CG8051	DRSC20077	1.36e5	352
CG2915	DRSC06842	2687	184
eIF4E1	DRSC11342	1.12e5	205
TfIIB	DRSC03454	1.08e5	4832
CG4161	DRSC01930	1.05e5	4661
Nop60B	DRSC04627	77981	3611

In a second layout: results already given
gene,dsRNA,"E2F firefly, rep 1","Renilla normaliser, rep 1"
Tsf1,DRSC20296,2.42e5,7310
CG13962,DRSC02304,84822,3958
CG31688,DRSC02682,86625,3534
